# Results as given in patent US4965273A, “Certain 1-tertiary-butyl-naphthyridone carboxylic acid derivatives anti-bacterial agents” (priority 1988, dated 1990).
# At least one structure is not confirmed: it was looked up by name or label, or the drawing left a doubt.
# Tested on: bacteria
# Test: In vitro antibacterial activity (microtitration dilution method), stated in words
# Format: cell-based
# Settings: naphthyridine versus quinoline analog
compound,measurement,value
"CC(C)(C)n1cc(C(=O)O)c(=O)c2cc(F)c(N3CCNCC3)nc21 [Example 20, 7-piperazinyl-1-(1,1-dimethylethyl)-1,4-dihydro-6-fluoro-4-oxo-1,8-naphthyridine-3-carboxylic acid]",antibacterial activity of Example 20 relative to Example 1,improvement illustrated by Example 20 relative to Example 1
